No constants are given. Whether binding was seen depends on the method and setting. Some results given as binding are weak or reduced against the parent protein; the word gives no strength.
What was measured:
[1] = biological target: CD94/NKG2A on the surface of primary human NK cells (human) (UniProt Q13241); assay: flow cytometry on primary NK cells
[2] = biological target: single chain CD94/NKG2A-Fc (CD94/NKG2A-IgG1 fusion polypeptide) (human); assay: recombinant CD94/NKG2A binding assays
[3] = biological target: CD94/NKG2A on the surface of primary human NK cells (human) (UniProt Q13241); assay: flow cytometry on primary NK cells, 100 nM
[4] = biological target: CD94/NKG2A on the surface of primary human NK cells (human) (UniProt Q13241); assay: flow cytometry on primary NK cells, 10 nM antibody

By UniProt entry, the sequences of proteins in these tests, tags left out. Where a name states a change or a piece, a line headed by the entry shows the natural chain unless it says otherwise.
UniProt Q13241: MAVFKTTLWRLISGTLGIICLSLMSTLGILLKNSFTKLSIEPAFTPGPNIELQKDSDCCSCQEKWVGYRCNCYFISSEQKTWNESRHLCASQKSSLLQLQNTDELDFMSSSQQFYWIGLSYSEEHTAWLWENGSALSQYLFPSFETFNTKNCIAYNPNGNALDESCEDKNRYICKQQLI

Measured: binding

B1: IgG Clone #2 (1B2-6, IgG1-LALA-PG) (antibody, V domains shown)
VH: EVQLVESGGGLVKPGGSLRLSCAASGFTFSGYYMSWIRQAPGKGLEWLAYISNSGRTIYYADSVKGRFTISRDNSNSSLYLQMNSLRAEDTAVYYCARGFYMDAWGKGTTVTVSS
VL: DIQMTQSPSSLSASVGDRVTITCRASQSISSYLNWYQQKPGKAPKLLIYAASSLQSGVPSRFSGSGSGTDFTLTISSLQPEDFGVYYCQYYGISPPFTFGPGTKVDIKR
binds: all assays above

— patent publication US20240415889A1
